From article PMC6102588, “Quaternary Structure, Salt Sensitivity, and Allosteric Regulation of β-AMYLASE2 From Arabidopsis thaliana” (Frontiers in Plant Science, 2018) come the findings set out here.

Amino acid sequences for entries named in this document (tags omitted). A change or cut given only in a name is not applied to a line headed by its entry. Chains listed by the source or under a name are the forms on record and can include a tag or linker.
BAM2 D490R mutant (Interface A) (O65258, form named): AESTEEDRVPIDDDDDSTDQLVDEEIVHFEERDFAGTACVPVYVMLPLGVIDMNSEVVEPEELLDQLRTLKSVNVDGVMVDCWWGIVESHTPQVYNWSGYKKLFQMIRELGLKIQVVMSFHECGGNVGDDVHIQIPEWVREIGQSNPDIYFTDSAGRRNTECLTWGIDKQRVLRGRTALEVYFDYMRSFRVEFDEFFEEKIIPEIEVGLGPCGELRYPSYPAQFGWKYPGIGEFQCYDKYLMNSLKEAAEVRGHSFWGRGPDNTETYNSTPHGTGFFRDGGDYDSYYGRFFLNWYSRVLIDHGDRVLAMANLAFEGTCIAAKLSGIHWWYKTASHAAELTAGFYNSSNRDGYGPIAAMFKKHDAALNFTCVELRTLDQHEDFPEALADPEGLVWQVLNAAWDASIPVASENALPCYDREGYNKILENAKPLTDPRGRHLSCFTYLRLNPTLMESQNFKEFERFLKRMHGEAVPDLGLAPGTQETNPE

In this assay the target is BAM2 D490R mutant (Interface A) (Arabidopsis thaliana) (UniProt O65258). The experiment in a line: SEC-MALS; proteins at 1-2 mg mL^-1 injected into a 4.6 x 300 mm size-exclusion column, 0.5 mL min^-1, 10 mM MOPS, pH 7, 250 mM KCl; masses are averages, n = 3; both purified.

No constants are given. Whether binding was seen depends on the method and setting.

Take “BAM2 D490R mutant (Interface A) (from UniProt O65258 56-542) (enzyme)”: the binding entry is reported as “no binding (tested: 1–2 mg mL^−1)”.
